{"source": "PubChem BioAssay AID1671195 (Yale University, 2021)", "aim": "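Knockdowns that increase or decrease uptake of fluorescent LDL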 (primary screen)", "cell system": "human Huh7 hepatoma cells", "knock-down reagent": "siRNA pool against human genes, 18 nM", "time to read-out": "about 2 to 2.5 days of knockdown, then 8 h LDL uptake", "treatment": "DiI-labelled LDL at 30 µg/ml for 8 h, in lipoprotein-deficient serum medium", "detection": "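Fluorescent LDL signal imaged in cells, scaled to the plate median, robust z-score for each replicate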", "direction": "robust z-score: higher = more LDL uptake after knockdown", "rule for the call": "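a gene counts as active if at least two replicate z-scores exceed ±2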", "note": "The deposit covers about 22,000 reagents; this is a random part of them. About 1,510 of all reagents (6.9%) count as active. 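Active includes knockdowns raising or lowering LDL uptake; positive z-scores mean more uptake, negative mean less.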"}
{"gene": "ZC4H2 (zinc finger C4H2-type containing)", "robust z-score, replicate 1": 1.22, "robust z-score, replicate 2": -0.0279, "robust z-score, replicate 3": 0.745, "Call": "inactive"}
{"gene": "RIMS2 (regulating synaptic membrane exocytosis 2)", "robust z-score, replicate 1": 0.208, "robust z-score, replicate 2": 0.268, "robust z-score, replicate 3": 0.105, "Call": "inactive"}
{"gene": "MED17 (mediator complex subunit 17)", "robust z-score, replicate 1": 0.0606, "robust z-score, replicate 2": 0.198, "robust z-score, replicate 3": 0.465, "Call": "inactive"}
{"gene": "RPS6P17 (ribosomal protein S6 pseudogene 17)", "robust z-score, replicate 1": 0.988, "robust z-score, replicate 2": 0.656, "robust z-score, replicate 3": 1.34, "Call": "inactive"}
{"gene": "LOC441847 (retired record)", "robust z-score, replicate 1": -0.587, "robust z-score, replicate 2": 0.343, "robust z-score, replicate 3": -0.383, "Call": "inactive"}
{"gene": "EIF6 (eukaryotic translation initiation factor 6)", "robust z-score, replicate 1": 0.0645, "robust z-score, replicate 2": 0.57, "robust z-score, replicate 3": 1.93, "Call": "inactive"}
{"gene": "AHCYL2 (adenosylhomocysteinase like 2)", "robust z-score, replicate 1": 0.329, "robust z-score, replicate 2": 0.0305, "robust z-score, replicate 3": 0.49, "Call": "inactive"}
{"gene": "RFPL1 (ret finger protein like 1)", "robust z-score, replicate 1": 0.426, "robust z-score, replicate 2": -0.756, "robust z-score, replicate 3": -0.196, "Call": "inactive"}
{"gene": "TLL1 (tolloid like 1)", "robust z-score, replicate 1": 1.02, "robust z-score, replicate 2": 0.631, "robust z-score, replicate 3": 1.64, "Call": "inactive"}
{"gene": "NDUFS7 (NADH:ubiquinone oxidoreductase core subunit S7)", "robust z-score, replicate 1": -0.689, "robust z-score, replicate 2": -0.581, "robust z-score, replicate 3": -0.49, "Call": "inactive"}
{"gene": "MGA (MAX dimerization protein MGA)", "robust z-score, replicate 1": 1.71, "robust z-score, replicate 2": -0.445, "robust z-score, replicate 3": 0.5, "Call": "inactive"}
{"gene": "KLRD1 (killer cell lectin like receptor D1)", "robust z-score, replicate 1": 1.65, "robust z-score, replicate 2": 1.83, "robust z-score, replicate 3": 2.12, "Call": "inactive"}
{"gene": "NANOG (Nanog homeobox)", "robust z-score, replicate 1": -0.933, "robust z-score, replicate 2": -0.771, "robust z-score, replicate 3": -0.355, "Call": "inactive"}
{"gene": "ANKAR (ankyrin and armadillo repeat containing)", "robust z-score, replicate 1": 1.95, "robust z-score, replicate 2": 2.2, "robust z-score, replicate 3": 0.722, "Call": "active"}
{"gene": "KLK15 (kallikrein related peptidase 15)", "robust z-score, replicate 1": -1.03, "robust z-score, replicate 2": -1.38, "robust z-score, replicate 3": -0.847, "Call": "inactive"}
{"gene": "F11R (F11 receptor)", "robust z-score, replicate 1": -0.626, "robust z-score, replicate 2": 0.155, "robust z-score, replicate 3": 1.2, "Call": "inactive"}

Records listed so far called active:
{"gene": "ANKAR (ankyrin and armadillo repeat containing)", "robust z-score, replicate 1": 1.95, "robust z-score, replicate 2": 2.2, "robust z-score, replicate 3": 0.722, "Call": "active"}
